Results as given in patent US20060094059A1, “Methods for identifying new drug leads and new therapeutic uses for known drugs” (Odyssey Thera, Inc., priority 2004, published 2006).
At least one compound was matched to its structure with a doubt left.

Key:
[1] = test system: phospho-ERK (MAPK) in the presence of VEGF; test: Immunofluorescence assay phospho-ERK + VEGF; assay type: cell-based, human
Protocol: Immunofluorescence was performed on drug-treated cells to assess the post-translational modification status of proteins involved in the pathways of interest. We constructed assays designed to measure the phosphorylation status of key signaling proteins in the absence and presence of a growth factor stimulus. A drug capable of blocking or inhibiting the pathway leading to the signaling protein would in principle cause a decrease in the phosphorylation of that signaling protein in response to the selected growth factor. Such a change in phosphorylation status could be measured by a decrease in fluorescence in the presence of the drug. […]
HEK293T cells were seeded at a density of 7,500/well in poly-D-lys coated, blackwalled 96 well plate (Greiner). […] Phosphorylated ERK was detected by incubating the fixed cells with rabbit phospho-ERK (T202/Y204)-specific antibodies (Cell Signaling Technologies) followed by Alexa488 conjugated goat anti-rabbit antibody (Molecular Probes). […] Fluorescence images were acquired on a Discovery-1 imaging station (Molecular Devices) as described above.
Background fluorescence due to nonspecific binding by the secondary antibody was established with the use of cells that were incubated with BSA/PBS and without primary antibodies. […]

CDC42:PAK4 complexes = test: Protein-fragment complementation assay CDC42:PAK4; assay type: cell-based, human; conditions: hit in CDC42/PAK4 assay; drugs screened at 10 micromolar
From the text: To construct dynamic assays for protein-protein complexes, we used a protein-fragment complementation assay strategy (PCAs) in intact human cells. (A variety of other suitable assays, and reporter options, are described in detail below.) The principle of PCA is that complementary polypeptide fragments (F[1] and F[2]) of a reporter protein or enzyme will fold into an active form only if fused to two proteins which interact and bring the complementary fragments of the reporter protein into proximity. Reconstitution of the fragments of the reporter protein generates a fluorescent signal that can be quantified in intact cells, and the amount of the signal is proportional to the amount of the protein-protein complex used in constructing the assay. Given a suitable reporter type, the subcellular location of the complex can also be measured.
Reporter fragments for PCA were generated by oligonucleotide synthesis (Blue Heron Biotechnology, Bothell, Wash.), starting with the sequence of yellow fluorescent protein (YFP). First, oligonucleotides coding for polypeptide fragments YFP[1]and YFP[2] […] Next, PCR mutagenesis was used to generate the mutant fragments IFP[1] and IFP[2]. The IFP[1] fragment corresponds to YFP[1]-(F46L, F64L, M153T) and the IFP[2] fragment corresponds to YFP[2]-(V163A, S175G). […]

CC(C)OC(=O)C(C)(C)Oc1ccc(C(=O)c2ccc(Cl)cc2)cc1 [Fenofibrate] was tested. Which “level of phospho-ERK (intensity of the fluorescence)” value ([1]; FIG. 3G, in the presence of VEGF, compared with the vehicle alone) did it give?
The value was “decrease in the level of phospho-ERK”.

What about the Assay activity ([1]; hit in phospho-ERK (+VEGF) immunofluorescence assay, drug 90 min, 50 ng/ml mVEGF last 5 min) of the same compound?
Its Assay activity is “phosphoo-ERK”.

For C=C1c2c(Cl)ccc(O)c2C(=O)C2=C(O)[C@]3(O)C(=O)C(C(N)=O)=C(O)[C@@H](N(C)C)[C@@H]3[C@@H](O)[C@H]12 [Meclocycline], which Assay activity (CDC42:PAK4 complexes) is on record?
Its Assay activity is “CDC42/PAK4”.
